Experiment [1] addresses T1, negGFP-ANKS6-SAM R823W (human) (UniProt Q68DC2).
T1 sequence: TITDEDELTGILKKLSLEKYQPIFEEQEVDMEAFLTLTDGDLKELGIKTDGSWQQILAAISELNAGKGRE
Put plainly: native gel or EMSA; negGFP native gel binding assay: lysates of two negGFP-SAM fusions mixed (1:1, or varying ratios by fluorescence), 20 mM Tris pH 7.5, 0.3 M NaCl, TCEP, equilibrated 3-4 h at 4°C, 20% native gel, read by fluorescence; a new upshifted band means binding. Background: In EMSA bound probe runs differently from free probe, usually more slowly.

In experiment [2] the target is T2, negGFP-ANKS6-SAM fusion protein (human) (UniProt Q68DC2).
T2 sequence: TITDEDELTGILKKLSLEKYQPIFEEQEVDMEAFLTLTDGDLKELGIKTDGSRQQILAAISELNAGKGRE
Described as above.

For experiment [3], the target named is negGFP-ANKS3-SAM fusion protein (human) (UniProt Q6ZW76). Put plainly: native gel or EMSA; negGFP native gel assay of one negGFP-SAM fusion alone (lysate); self-association read from diffuse, slower migration against monomeric SAM domains.
For experiment [4], the target named is T2, negGFP-ANKS6-SAM fusion protein (human). Described as above.

No constants are given. Whether binding was seen depends on the method and setting. Some entries that bind do so weakly or less than the wild type. Tags and fused reporters may be left off the sequences shown.

From PMC4105859, “Characterization of the SAM domain of the PKD-related protein ANKS6 and its interaction with ANKS3” (BMC Structural Biology, 2014) come the findings set out here.

B1: negGFP-ANKS3-SAM fusion protein (domain or fragment, human, UniProt Q6ZW76 421-490, looked up)
chain: RAPYSGPQDLAALLEQIGCLKYLQVFEEQDVDLRIFLTLTESDLKEIGITLFGPKRKMTSAIARWHSSAR
notes: ANKS3 (ankyrin repeat and SAM-domain containing protein 3), human, SAM domain, residues 421-490 of UniProt Q6ZW76; source: ARI814 cells, in lysate (native gel); purified (Ni-NTA, HiTrap Q) for TEM
Take B1: the binding entry in experiment [1] is reported as “no binding”; in experiment [2], “binds”; in experiment [3], “binds weakly”.

B2: negGFP-ANKS6-SAM fusion protein (domain or fragment, UniProt Q68DC2 771-840)
chain: TITDEDELTGILKKLSLEKYQPIFEEQEVDMEAFLTLTDGDLKELGIKTDGSRQQILAAISELNAGKGRE
Take B2: the binding entry in experiment [4] is recorded as “no binding”.
